Entries after “also recorded” stand apart in the source; their conditions may differ. For at least one compound, name, drawing or mass did not settle the structure.
What was measured:
[1] = system: t(1;19) ALL cell lines (RCH-ACV); test: Dasatinib viability (MTS) after ROR1 silencing; type: cell-based, human; conditions: ROR1 siRNA 2 days, then graded dasatinib 2 days
[2] = system: ROR1 expression in t(1;19) ALL cell lines (RCH-ACV); test: ROR1 expression after dasatinib treatment (qPCR, immunoblot, flow cytometry); type: cell-based, human
[3] = system: t(17;19) ALL primary sample; test: Dasatinib cell viability (MTS assay), t(17;19) ALL primary sample; type: cell-based, human; conditions: 3 days
RCH-ACV cells [4] = test: Apoptosis by annexin-V and 7-AAD staining after dasatinib; type: cell-based, human; conditions: graded concentrations, 96 hours
Kasumi-2 cells = test: Dasatinib cell viability (MTS assay), Kasumi-2; type: cell-based, human; conditions: ROR1-positive t(1;19) cell line; graded concentrations, 3 days
PI3K or AKT = conditions: cited from earlier work
REH cells = test: Dasatinib cell viability (MTS assay), REH; type: cell-based, human; conditions: ROR1-negative cell line; to the highest dose tested, 3 days
RCH-ACV cells [5] = test: Dasatinib cell viability (MTS assay), RCH-ACV; type: cell-based, human; conditions: ROR1-positive t(1;19) cell line; graded concentrations, 3 days
[6] = system: AKT phosphorylation (pre-BCR signaling) in t(1;19) cell lines; test: AKT phosphorylation immunoblot after dasatinib; type: cell-based, human; conditions: t(1;19) cell lines (RCH-ACV)
[7] = system: BCL6 expression in t(1;19) cell lines; test: BCL6 protein expression immunoblot after dasatinib; type: cell-based, human; conditions: t(1;19) cell lines (RCH-ACV)
[8] = system: Burkitt's leukemia primary sample; test: Dasatinib cell viability (MTS assay), Burkitt's primary sample; type: cell-based, human; conditions: 3 days

## Cc1nc(Nc2ncc(C(=O)Nc3c(C)cccc3Cl)s2)cc(N2CCN(CCO)CC2)n1 [dasatinib]
[1]
  sensitivity to dasatinib of cells subjected to ROR1 silencing compared with non-specific siRNA: more sensitive
[2]; 100 nM dasatinib, 12, 24, 48 hours
  ROR1 mRNA expression: rapid increases
[2]; 100 nM dasatinib, 12, 24, 48 hours, immunoblot
  ROR1 protein expression: rapid increases
[2]; 100 nM dasatinib, 12-72 hours, flow cytometry
  ROR1 cell surface expression: rapid increases
[3]
  IC50 cell viability: comparable to t(1;19) ALL
  sensitivity to dasatinib (cell viability): sensitive
RCH-ACV cells [4]
  induction of apoptosis (annexin-V and 7-AAD staining): induces apoptosis
Kasumi-2 cells
  cell killing / cell viability: effective killing
PI3K or AKT
  biochemical affinity / functional activity against PI3K or AKT: no direct activity; also recorded: does not exhibit biochemical affinity nor functional activity
REH cells
  cell killing / cell viability: insensitive
RCH-ACV cells [5]
  cell killing / cell viability: effective killing
[6]
  AKT phosphorylation: rapidly inhibited; also recorded: marked inhibition
[7]
  BCL6 protein expression: loss of BCL6 protein expression; also recorded: rapidly lost
[8]
  IC50 cell viability: comparable to t(1;19) ALL
  sensitivity to dasatinib (cell viability): sensitive

Source: US20130131139A1, “ROR1 AS A GENE TARGET IN ACUTE LYMPHOBLASTIC LEUKEMIA” (Oregon Health & Science University, priority 2011, published 2013)
